These results are taken from article PMC10890932.

Protein sequences, listed by entry. Tags and fused reporters are not part of them.
UniProt P09874: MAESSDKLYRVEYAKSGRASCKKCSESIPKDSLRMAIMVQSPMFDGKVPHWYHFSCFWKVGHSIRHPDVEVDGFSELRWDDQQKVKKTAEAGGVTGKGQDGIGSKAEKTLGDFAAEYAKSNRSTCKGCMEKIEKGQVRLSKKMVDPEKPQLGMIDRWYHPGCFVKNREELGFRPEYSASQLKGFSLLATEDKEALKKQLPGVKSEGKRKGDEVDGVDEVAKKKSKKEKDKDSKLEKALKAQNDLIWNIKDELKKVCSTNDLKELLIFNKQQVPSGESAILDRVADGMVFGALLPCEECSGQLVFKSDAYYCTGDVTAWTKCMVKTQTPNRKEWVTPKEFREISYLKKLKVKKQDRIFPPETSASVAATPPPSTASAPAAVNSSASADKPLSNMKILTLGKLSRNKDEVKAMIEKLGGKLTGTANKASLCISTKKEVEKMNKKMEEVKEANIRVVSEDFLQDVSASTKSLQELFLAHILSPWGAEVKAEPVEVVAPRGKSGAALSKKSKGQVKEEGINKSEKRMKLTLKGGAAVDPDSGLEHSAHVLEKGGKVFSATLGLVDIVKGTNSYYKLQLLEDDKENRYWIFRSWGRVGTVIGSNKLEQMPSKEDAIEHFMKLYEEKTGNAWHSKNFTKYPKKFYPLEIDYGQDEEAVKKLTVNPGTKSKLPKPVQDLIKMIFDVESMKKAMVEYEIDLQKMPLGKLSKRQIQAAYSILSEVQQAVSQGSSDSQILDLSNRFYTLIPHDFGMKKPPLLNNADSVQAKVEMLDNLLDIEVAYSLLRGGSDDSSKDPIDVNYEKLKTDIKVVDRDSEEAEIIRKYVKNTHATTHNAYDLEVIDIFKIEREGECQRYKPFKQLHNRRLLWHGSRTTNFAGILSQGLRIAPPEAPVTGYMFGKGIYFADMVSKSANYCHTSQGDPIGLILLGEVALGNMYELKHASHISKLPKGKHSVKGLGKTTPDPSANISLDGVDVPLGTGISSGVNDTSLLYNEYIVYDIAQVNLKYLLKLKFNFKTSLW

These are yes or no findings as the source states them, for the method shown. Binding seen in cells or lysates may run through a third protein. Here binding means that the protein was enriched with, or labelled near, the bait; the list need not be complete. Tags and fused reporters may be left off the sequences shown.

The assay has as its target T1, TKT-Flag (human) (UniProt P29401).
T1 sequence: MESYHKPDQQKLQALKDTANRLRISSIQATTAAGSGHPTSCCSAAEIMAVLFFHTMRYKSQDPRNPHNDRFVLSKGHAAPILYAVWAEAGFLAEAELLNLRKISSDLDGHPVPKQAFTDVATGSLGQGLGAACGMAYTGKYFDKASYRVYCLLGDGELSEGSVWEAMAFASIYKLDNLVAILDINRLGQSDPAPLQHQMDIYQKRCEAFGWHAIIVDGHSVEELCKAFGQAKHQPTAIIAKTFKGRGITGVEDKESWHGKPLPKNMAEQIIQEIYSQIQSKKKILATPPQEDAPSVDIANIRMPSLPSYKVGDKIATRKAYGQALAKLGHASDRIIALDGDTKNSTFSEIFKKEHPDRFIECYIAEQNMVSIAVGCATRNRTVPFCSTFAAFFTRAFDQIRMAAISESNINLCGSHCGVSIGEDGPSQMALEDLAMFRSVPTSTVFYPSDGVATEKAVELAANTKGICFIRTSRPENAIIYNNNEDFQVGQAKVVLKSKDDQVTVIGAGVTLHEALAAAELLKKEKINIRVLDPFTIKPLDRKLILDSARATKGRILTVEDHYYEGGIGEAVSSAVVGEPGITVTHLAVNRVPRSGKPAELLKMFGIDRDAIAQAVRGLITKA
Description: affinity purification with mass spectrometry; Hep3B cells stably expressing TKT-Flag; immunoprecipitation with anti-Flag or anti-IgG antibody; SDS-PAGE, Coomassie staining, bands of interest analysed by LC-MS/MS.

Turning to “Poly (ADP-ribose) polymerase 1 (PARP1), endogenous in Hep3B (from UniProt P09874 1-1014) (enzyme)”, the binding entry was “binds”.
